Data published in the supplement of paper PMC4604168 (melanoma cell lines).
The other results are listed elsewhere or left out. Single values are uncertain, as repeats are few or missing.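 Cells were imaged in 1,536-well plates, and nuclei stained with an antibody against cleaved PARP were counted against all DNA-stained nuclei to give the apoptosis fraction. Screening doses were chosen to leave most cells alive, and resting and induced cleaved-PARP levels differ strongly between cell lines.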

How the values were obtained:
Assay in all cases: cleaved PARP positive nuclei fraction relative to DMSO control; melanoma cells; higher = more apoptosis
Conditions in all cases: library dose: low library concentration; 72 h
[1] = test system: MZ2-MEL
[2] = test system: MeWo
[3] = test system: RPMI7951
[4] = test system: RVH-421
[5] = test system: SkMel28
[6] = test system: SkMel2
[7] = test system: SkMel30
[8] = test system: SkMel5
[9] = test system: UACC257
[10] = test system: UACC62
[11] = test system: WM115
[12] = test system: WM1716
[13] = test system: WM1745
[14] = test system: WM3526
[15] = test system: WM3619
[16] = test system: WM451Lu

SMILES	cleaved PARP positive nuclei fraction [1]	cleaved PARP positive nuclei fraction [2]	cleaved PARP positive nuclei fraction [3]	cleaved PARP positive nuclei fraction [4]	cleaved PARP positive nuclei fraction [5]	cleaved PARP positive nuclei fraction [6]	cleaved PARP positive nuclei fraction [7]	cleaved PARP positive nuclei fraction [8]	cleaved PARP positive nuclei fraction [9]	cleaved PARP positive nuclei fraction [10]	cleaved PARP positive nuclei fraction [11]	cleaved PARP positive nuclei fraction [12]	cleaved PARP positive nuclei fraction [13]	cleaved PARP positive nuclei fraction [14]	cleaved PARP positive nuclei fraction [15]	cleaved PARP positive nuclei fraction [16]
CC[C@]1(O)C[C@H]2CN(CCc3c([nH]c4ccccc34)[C@@](C(=O)OC)(c3cc4c(cc3OC)N(C=O)[C@H]3[C@@](O)(C(=O)OC)[C@H](OC(C)=O)[C@]5(CC)C=CCN6CC[C@]43[C@@H]65)C2)C1 [vincristine] + O=C(O)C(=O)Nc1sc2c(c1C(=O)O)CCNC2 [TCS401] (first compound 0.0001 µM, partner dose 1.66667 µM)	372%	75.1%	41.1%	73%	122%	197%	145%	78.7%	405%	51.9%	776%	440%	135%	108%	166%	543%
N#CC[C@H](C1CCCC1)n1cc(-c2ncnc3[nH]ccc23)cn1 [ruxolitinib] + CO[C@@H]1[C@H](N(C)C(=O)c2ccccc2)C[C@H]2O[C@]1(C)n1c3ccccc3c3c4c(c5c6ccccc6n2c5c31)C(=O)NC4 [Midostaurin] (first compound 1 µM, partner dose 0.08 µM)	152%	180%	183%	121%	87.8%	71.4%	321%	75.2%	108%	118%	297%	158%	108%	101%	104%	179%
Cc1cn(-c2cc(NC(=O)c3ccc(C)c(Nc4nccc(-c5cccnc5)n4)c3)cc(C(F)(F)F)c2)cn1 [nilotinib] + Oc1cc(-c2nc(-c3ccccc3)[nH]c2-c2ccncc2)ccc1Cl [L779450] (first compound 0.2 µM, partner dose 0.2 µM)	38.9%	98.7%	40.7%	149%	305%	3820%	151%	140%	137%	197%	130%	95.7%	92.6%	84.8%	82.1%	130%
O=C(Nc1cc(C(F)(F)F)cc(C(F)(F)F)c1)c1cc(Cl)ccc1O + OCCn1cc(-c2cnc3nnn(Cc4ccc5ncccc5c4)c3n2)cn1 [PF04217903] (first compound 0.016 µM, partner dose 1 µM)	29.2%	92.7%	47.2%	119%	189%	107%	57.2%	73.3%	104%	49.7%	370%	90.4%	72%	57.4%	97.4%	21.9%
Cc1cc(Nc2cc(N3CCN(C)CC3)nc(Sc3ccc(NC(=O)C4CC4)cc3)n2)n[nH]1 [Tozasertib] + CCN(CC)CCCCNc1ncc2cc(-c3cc(OC)cc(OC)c3)c(NC(=O)NC(C)(C)C)nc2n1 [PD173074] (first compound 0.006 µM, partner dose 0.1 µM)	47.1%	63.9%	76.1%	44.4%	154%	135%	51.9%	133%	77.6%	110%	30.6%	54.9%	121%	92.9%	112%	32.3%
Cc1ccc(Nc2nccc(N(C)c3ccc4c(C)n(C)nc4c3)n2)cc1S(N)(=O)=O [Pazopanib] + CC1(C)NC(=O)N(c2ccc([N+](=O)[O-])c(C(F)(F)F)c2)C1=O [nilutamide] (first compound 0.4 µM, partner dose 1 µM)	41.4%	70.8%	132%	34.4%	84.6%	121%	72.1%	50.3%	63.5%	127%	91.4%	68.1%	320%	161%	93.5%	53.3%
CCCCCCCCCCCCCCCCCCOP(=O)([O-])OC1CC[N+](C)(C)CC1 [Perifosine] + CN(NC(=O)CC(=O)NN(C)C(=S)c1ccccc1)C(=S)c1ccccc1 [STA4783] (first compound 0.4 µM, partner dose 0.006 µM)	115%	29.2%	202%	22.9%	64.3%	51.8%	63.1%	206%	58.2%	147%	206%	378%	130%	41.6%	101%	45.5%
O=C(Nc1cc(C(F)(F)F)cc(C(F)(F)F)c1)c1cc(Cl)ccc1O + COc1cc(Nc2ncc(F)c(Nc3ccc4c(n3)NC(=O)C(C)(C)O4)n2)cc(OC)c1OC [Tamatinib] (first compound 0.016 µM, partner dose 0.4 µM)	46.1%	186%	49.9%	30.6%	97.7%	86.2%	71.6%	54.2%	278%	435%	153%	137%	176%	55.4%	99.8%	131%
Cc1cn(-c2cc(NC(=O)c3ccc(C)c(Nc4nccc(-c5cccnc5)n4)c3)cc(C(F)(F)F)c2)cn1 [nilotinib] + COc1cc2c(Oc3ccc4[nH]c(C)cc4c3F)ncnc2cc1OCCCN1CCCC1 [cediranib] (first compound 0.2 µM, partner dose 0.4 µM)	74%	105%	104%	61.3%	38.8%	139%	77%	69.7%	152%	182%	75.5%	108%	108%	49.1%	125%	28.6%
N#CC[C@H](C1CCCC1)n1cc(-c2ncnc3[nH]ccc23)cn1 [ruxolitinib] + Cc1ccc(NC(=O)c2cccc(N(C)C)c2)cc1NC(=O)c1ccc(O)cc1 [ZM336372] (first compound 1 µM, partner dose 2 µM)	155%	109%	49.9%	188%	207%	73.6%	63.6%	233%	35.9%	195%	120%	90.9%	103%	55.7%	96.4%	83.5%
Cc1cn(-c2cc(NC(=O)c3ccc(C)c(Nc4nccc(-c5cccnc5)n4)c3)cc(C(F)(F)F)c2)cn1 [nilotinib] + N#Cc1c(O)c2c(-c3ccc(-c4ccccc4O)cc3)csc2[nH]c1=O [A769662] (first compound 0.2 µM, partner dose 2 µM)	47.5%	81.5%	85.4%	107%	33.1%	132%	177%	70.9%	5.74%	257%	146%	23.1%	87.3%	81.5%	82.6%	258%
N#CC[C@H](C1CCCC1)n1cc(-c2ncnc3[nH]ccc23)cn1 [ruxolitinib] + O=S(=O)(c1ccccc1)N(CC(F)(F)F)c1ccc(C(O)(C(F)(F)F)C(F)(F)F)cc1 [T0901317] (first compound 1 µM, partner dose 1.4 µM)	111%	74.1%	133%	67.5%	133%	72.1%	42.6%	160%	72.6%	101%	137%	130%	86.4%	65.3%	88.1%	74.9%
CC[C@]1(O)C[C@H]2CN(CCc3c([nH]c4ccccc34)[C@@](C(=O)OC)(c3cc4c(cc3OC)N(C=O)[C@H]3[C@@](O)(C(=O)OC)[C@H](OC(C)=O)[C@]5(CC)C=CCN6CC[C@]43[C@@H]65)C2)C1 [vincristine] + CCCCCCCCCCCC1=C(O)C(=O)C=C(O)C1=O [Embelin] (first compound 0.0001 µM, partner dose 1.2 µM)	77.5%	136%	85.6%	35.4%	191%	173%	301%	193%	288%	476%	762%	290%	134%	108%	177%	138%
COc1cc([C@@H]2c3cc4c(cc3[C@@H](O[C@@H]3O[C@@H]5CO[C@@H](C)O[C@H]5[C@H](O)[C@H]3O)[C@H]3COC(=O)[C@H]23)OCO4)cc(OC)c1O [etoposide] + O=C(O)C(=O)Nc1sc2c(c1C(=O)O)CCNC2 [TCS401] (first compound 0.02 µM, partner dose 1.66667 µM)	106%	71.8%	118%	14.5%	10.2%	54.6%	33.8%	38.4%	13.6%	117%	117%	42.9%	93.9%	38.6%	92.1%	16.3%
Cc1ccc(Nc2nccc(N(C)c3ccc4c(C)n(C)nc4c3)n2)cc1S(N)(=O)=O [Pazopanib] + CN(C)S(=O)(=O)c1ccc2c(c1)/C(=C/c1cc3c([nH]1)CCCC3)C(=O)N2 [SU6656] (first compound 0.4 µM, partner dose 0.4 µM)	100%	112%	60.8%	201%	72.9%	51.1%	84.8%	66.7%	135%	43.2%	147%	78%	102%	256%	97.3%	88%
O=C(/C=C/c1cccnc1)NCCCCC1CCN(C(=O)c2ccccc2)CC1 + Oc1cc(-c2nc(-c3ccccc3)[nH]c2-c2ccncc2)ccc1Cl [L779450] (first compound 0.01 µM, partner dose 0.2 µM)	503%	175%	210%	87.4%	196%	470%	39.1%	151%	60.7%	95.7%	56.5%	57.3%	483%	167%	107%	133%
Cc1cc(Nc2cc(N3CCN(C)CC3)nc(Sc3ccc(NC(=O)C4CC4)cc3)n2)n[nH]1 [Tozasertib] + CC(C)(C)c1cnc(CSc2cnc(NC(=O)C3CCNCC3)s2)o1 [SNS-032] (first compound 0.006 µM, partner dose 0.01 µM)	135%	73.3%	47.1%	179%	65.2%	146%	143%	144%	84.5%	194%	67.5%	47.3%	89.5%	182%	98.3%	120%
O=C(/C=C/c1cccnc1)NCCCCC1CCN(C(=O)c2ccccc2)CC1 + Cn1cncc1[C@@](N)(c1ccc(Cl)cc1)c1ccc2c(c1)c(-c1cccc(Cl)c1)cc(=O)n2C [tipifarnib] (first compound 0.01 µM, partner dose 0.01 µM)	506%	39.1%	252%	147%	96%	805%	72.3%	153%	111%	157%	397%	179%	85.5%	65.6%	109%	55.6%

Record cards, from the list above. Values in the order: cleaved PARP positive nuclei fraction [1] | cleaved PARP positive nuclei fraction [2] | cleaved PARP positive nuclei fraction [3] | cleaved PARP positive nuclei fraction [4] | cleaved PARP positive nuclei fraction [5] | cleaved PARP positive nuclei fraction [6] | cleaved PARP positive nuclei fraction [7] | cleaved PARP positive nuclei fraction [8] | cleaved PARP positive nuclei fraction [9] | cleaved PARP positive nuclei fraction [10] | cleaved PARP positive nuclei fraction [11] | cleaved PARP positive nuclei fraction [12] | cleaved PARP positive nuclei fraction [13] | cleaved PARP positive nuclei fraction [14] | cleaved PARP positive nuclei fraction [15] | cleaved PARP positive nuclei fraction [16]
O=C(/C=C/c1cccnc1)NCCCCC1CCN(C(=O)c2ccccc2)CC1 + Cn1cncc1[C@@](N)(c1ccc(Cl)cc1)c1ccc2c(c1)c(-c1cccc(Cl)c1)cc(=O)n2C [tipifarnib] (first compound 0.01 µM, partner dose 0.01 µM) as listed: 506% | 39.1% | 252% | 147% | 96% | 805% | 72.3% | 153% | 111% | 157% | 397% | 179% | 85.5% | 65.6% | 109% | 55.6%
Cc1ccc(Nc2nccc(N(C)c3ccc4c(C)n(C)nc4c3)n2)cc1S(N)(=O)=O [Pazopanib] + CC1(C)NC(=O)N(c2ccc([N+](=O)[O-])c(C(F)(F)F)c2)C1=O [nilutamide] (first compound 0.4 µM, partner dose 1 µM) as listed: 41.4% | 70.8% | 132% | 34.4% | 84.6% | 121% | 72.1% | 50.3% | 63.5% | 127% | 91.4% | 68.1% | 320% | 161% | 93.5% | 53.3%
